The values that follow come from publication doi:10.1101/2024.05.24.595653.

These are yes or no findings as the source states them, for the method shown. Binding seen in cells or lysates may run through a third protein. A yes stands for co-enrichment or nearness to the bait. Other partners may have been found. Where a sequence is shown, tags or fusion partners need not be part of it.

In this experiment the target is T1, fluorescent protein-tagged KIPK (KINESIN-LIKE CALMODULIN-BINDING PROTEIN … PROTEIN KINASE) (Arabidopsis thaliana) (UniProt Q9LFA2).
T1 sequence: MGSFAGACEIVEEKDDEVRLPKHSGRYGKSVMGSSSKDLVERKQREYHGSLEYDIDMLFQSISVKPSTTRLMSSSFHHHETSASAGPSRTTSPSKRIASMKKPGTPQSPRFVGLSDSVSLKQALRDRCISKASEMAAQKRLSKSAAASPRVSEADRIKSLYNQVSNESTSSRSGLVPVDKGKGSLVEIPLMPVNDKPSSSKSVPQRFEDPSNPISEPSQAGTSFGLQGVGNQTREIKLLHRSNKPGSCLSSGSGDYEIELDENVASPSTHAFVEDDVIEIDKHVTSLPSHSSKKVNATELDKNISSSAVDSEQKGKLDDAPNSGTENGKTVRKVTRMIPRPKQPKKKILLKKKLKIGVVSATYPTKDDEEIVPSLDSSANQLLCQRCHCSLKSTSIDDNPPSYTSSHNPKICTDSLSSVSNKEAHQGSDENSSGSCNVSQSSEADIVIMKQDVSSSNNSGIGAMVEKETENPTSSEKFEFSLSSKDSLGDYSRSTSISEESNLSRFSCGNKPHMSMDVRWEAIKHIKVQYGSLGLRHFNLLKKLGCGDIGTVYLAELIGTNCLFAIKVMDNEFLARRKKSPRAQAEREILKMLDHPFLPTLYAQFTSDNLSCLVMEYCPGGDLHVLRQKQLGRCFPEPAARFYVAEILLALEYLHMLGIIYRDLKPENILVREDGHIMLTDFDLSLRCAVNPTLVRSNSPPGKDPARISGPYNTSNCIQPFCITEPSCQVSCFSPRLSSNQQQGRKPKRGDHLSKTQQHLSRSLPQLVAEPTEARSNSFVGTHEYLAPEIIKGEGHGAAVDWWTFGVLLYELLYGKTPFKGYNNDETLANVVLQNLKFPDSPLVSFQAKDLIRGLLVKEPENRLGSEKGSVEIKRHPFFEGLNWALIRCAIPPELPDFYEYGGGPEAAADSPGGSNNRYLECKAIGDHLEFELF
Briefly: affinity purification with mass spectrometry.

B1: BRXL2 (BREVIS RADIX LIKE2) (protein, UniProt Q8GYL9 1-374)
chain: MLTCIACTKQLNTNNGGSKKQEEDEEEEDRVIETPRSKQIKSLTSQIKDMAVKASGAYKSCKPCSGSSNQNKNRSYADSDVASNSGRFRYAYKRAGSGSSTPKILGKEMESRLKGFLSGEGTPESMSGRTESTVFMEEEDELKEWVAQVEPGVLITFVSLPEGGNDMKRIRFSREMFDKWQAQKWWAENFDKVMELYNVQQFNQQSVPLPTPPRSEDGSSRIQSTKNGPATPPLNKECSRGKGYASSGSLAHQPTTQTQSRHHDSSGLATTPKLSSISGTKTETSSVDESARSSFSREEEEADHSGEELSVSNASDIETEWVEQDEAGVYITIRALPDGTRELRRVRFSREKFGETNARLWWEQNRARIQQQYL
In the case of B1, the binding entry was “binds”.
